{"source": "PubChem BioAssay AID1259425 – University of Nebraska Medical Center | 2018", "test": "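Find knockdowns that reproduce the gene expression pattern seen when KSR1 is lost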 (primary screen)", "cell system": "HCT116 human colon cancer cells", "reagents": "siRNA pool against human genes, 50 nM siRNA", "read-out": "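After 50 nM siRNA pool, branched-DNA assay measures six marker transcripts per well, minus blank, normalised to the geometric mean of two housekeeping transcripts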", "scale": "BNIP3L mRNA: higher = more BNIP3L transcript after knockdown; NDRG1 mRNA: higher = more NDRG1 transcript after knockdown", "note": "The whole screen tested about 14,000 reagents; below is a random part of them. Not all columns of the deposit are shown. The record does not give: the time to read-out."}
{"Gene": "PRB3", "BNIP3L mRNA, set 1": 0.0842, "NDRG1 mRNA, set 1": 0.127}
{"Gene": "RNPC3", "BNIP3L mRNA, set 1": 0.0427, "NDRG1 mRNA, set 1": 0.17}
{"Gene": "SIKE1", "BNIP3L mRNA, set 1": 0.109, "NDRG1 mRNA, set 1": 0.323}
{"Gene": "PPCS", "BNIP3L mRNA, set 1": 0.101, "NDRG1 mRNA, set 1": 0.269}
{"Gene": "ST6GAL2", "BNIP3L mRNA, set 1": 0.0584, "NDRG1 mRNA, set 1": 0.124}
{"Gene": "TCF7L2", "BNIP3L mRNA, set 1": 0.106, "NDRG1 mRNA, set 1": 0.116}
{"Gene": "VPS13A", "BNIP3L mRNA, set 1": 0.089, "NDRG1 mRNA, set 1": 0.137}
{"Gene": "DMC1", "BNIP3L mRNA, set 1": 0.102, "NDRG1 mRNA, set 1": 0.269}
{"Gene": "ALDOB", "BNIP3L mRNA, set 1": 0.128, "NDRG1 mRNA, set 1": 0.155}
{"Gene": "RHOB", "BNIP3L mRNA, set 1": 0.0878, "NDRG1 mRNA, set 1": 0.126}

The list goes on; the last 2 above are carried over.
{"Gene": "ALDOB", "BNIP3L mRNA, set 1": 0.128, "NDRG1 mRNA, set 1": 0.155}
{"Gene": "RHOB", "BNIP3L mRNA, set 1": 0.0878, "NDRG1 mRNA, set 1": 0.126}
{"Gene": "AGTRAP", "BNIP3L mRNA, set 1": 0.155, "NDRG1 mRNA, set 1": 0.171}
{"Gene": "SNX5", "BNIP3L mRNA, set 1": 0.11, "NDRG1 mRNA, set 1": 0.208}
{"Gene": "SLC7A9", "BNIP3L mRNA, set 1": 0.053, "NDRG1 mRNA, set 1": 0.252}
{"Gene": "SERINC1", "BNIP3L mRNA, set 1": 0.122, "NDRG1 mRNA, set 1": 0.212}
{"Gene": "SLC39A6", "BNIP3L mRNA, set 1": 0.118, "NDRG1 mRNA, set 1": 0.335}
{"Gene": "ABCA7", "BNIP3L mRNA, set 1": 0.203, "NDRG1 mRNA, set 1": 0.22}
{"Gene": "PPARD", "BNIP3L mRNA, set 1": 0.09, "NDRG1 mRNA, set 1": 0.237}
{"Gene": "POLK", "BNIP3L mRNA, set 1": 0.102, "NDRG1 mRNA, set 1": 0.57}
{"Gene": "BORCS6", "BNIP3L mRNA, set 1": 0.361, "NDRG1 mRNA, set 1": 0.458}
